# In the supplement of paper PMC10849652:
# Chains of the proteins cited; added tags and fusions are not shown. Lines headed by an entry give the natural chain unless they say otherwise; changes in a name come on top.
# UniProt Q9Y3B4: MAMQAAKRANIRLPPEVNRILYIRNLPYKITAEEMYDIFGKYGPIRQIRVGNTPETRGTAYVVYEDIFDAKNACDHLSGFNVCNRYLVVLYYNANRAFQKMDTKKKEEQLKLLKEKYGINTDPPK
# UniProt Q9NP50: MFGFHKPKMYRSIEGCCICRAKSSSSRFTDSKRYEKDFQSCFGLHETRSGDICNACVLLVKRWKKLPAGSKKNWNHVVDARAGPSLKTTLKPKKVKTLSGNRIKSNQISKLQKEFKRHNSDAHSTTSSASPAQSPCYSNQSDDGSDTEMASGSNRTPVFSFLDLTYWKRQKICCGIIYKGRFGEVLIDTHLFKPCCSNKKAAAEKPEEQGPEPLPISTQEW
# UniProt Q9BWJ5: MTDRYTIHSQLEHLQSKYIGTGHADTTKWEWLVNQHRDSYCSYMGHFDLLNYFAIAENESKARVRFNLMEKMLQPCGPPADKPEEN
# UniProt Q96BI1: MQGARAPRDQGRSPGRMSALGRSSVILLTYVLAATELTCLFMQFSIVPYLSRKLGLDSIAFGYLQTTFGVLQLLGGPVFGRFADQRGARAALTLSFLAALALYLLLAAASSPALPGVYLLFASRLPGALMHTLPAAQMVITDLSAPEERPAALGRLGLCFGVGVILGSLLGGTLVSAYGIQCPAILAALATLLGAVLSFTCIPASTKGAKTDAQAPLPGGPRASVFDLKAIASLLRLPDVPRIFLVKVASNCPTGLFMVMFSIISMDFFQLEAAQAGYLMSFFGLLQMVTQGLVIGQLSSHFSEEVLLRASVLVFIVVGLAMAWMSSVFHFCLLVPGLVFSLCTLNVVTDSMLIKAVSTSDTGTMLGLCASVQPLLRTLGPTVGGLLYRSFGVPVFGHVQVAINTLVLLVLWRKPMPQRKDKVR
# UniProt Q86XK3: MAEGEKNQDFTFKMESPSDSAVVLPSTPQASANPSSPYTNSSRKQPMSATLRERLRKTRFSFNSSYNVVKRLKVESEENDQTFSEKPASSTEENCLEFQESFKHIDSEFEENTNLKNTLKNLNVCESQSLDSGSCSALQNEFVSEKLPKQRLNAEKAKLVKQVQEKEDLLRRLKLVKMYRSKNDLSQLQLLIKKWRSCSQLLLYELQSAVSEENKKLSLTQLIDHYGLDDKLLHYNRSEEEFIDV
# UniProt Q9BXP2: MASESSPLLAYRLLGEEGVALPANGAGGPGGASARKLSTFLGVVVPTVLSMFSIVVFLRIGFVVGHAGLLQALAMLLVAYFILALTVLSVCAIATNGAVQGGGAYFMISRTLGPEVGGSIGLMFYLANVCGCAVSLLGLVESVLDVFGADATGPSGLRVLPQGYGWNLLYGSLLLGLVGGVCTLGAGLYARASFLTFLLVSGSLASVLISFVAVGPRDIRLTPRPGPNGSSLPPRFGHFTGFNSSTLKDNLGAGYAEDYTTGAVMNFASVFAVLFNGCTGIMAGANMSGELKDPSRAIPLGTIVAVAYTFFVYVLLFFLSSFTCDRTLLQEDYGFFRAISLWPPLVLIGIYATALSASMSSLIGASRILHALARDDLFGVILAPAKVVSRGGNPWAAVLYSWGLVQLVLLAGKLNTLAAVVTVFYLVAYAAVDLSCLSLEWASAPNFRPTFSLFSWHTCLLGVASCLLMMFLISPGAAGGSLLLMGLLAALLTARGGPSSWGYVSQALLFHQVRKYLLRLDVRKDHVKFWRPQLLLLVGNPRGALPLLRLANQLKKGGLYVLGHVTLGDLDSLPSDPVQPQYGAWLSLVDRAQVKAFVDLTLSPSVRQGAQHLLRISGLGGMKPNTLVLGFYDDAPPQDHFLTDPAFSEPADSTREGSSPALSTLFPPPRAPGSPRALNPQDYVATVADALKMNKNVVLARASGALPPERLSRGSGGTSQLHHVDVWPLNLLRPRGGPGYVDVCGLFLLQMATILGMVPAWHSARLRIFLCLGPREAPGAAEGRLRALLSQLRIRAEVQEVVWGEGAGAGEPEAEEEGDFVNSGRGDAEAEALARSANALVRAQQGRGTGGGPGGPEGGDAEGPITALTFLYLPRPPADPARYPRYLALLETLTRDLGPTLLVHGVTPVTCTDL
# UniProt Q8N6T7, whole entry, looked up: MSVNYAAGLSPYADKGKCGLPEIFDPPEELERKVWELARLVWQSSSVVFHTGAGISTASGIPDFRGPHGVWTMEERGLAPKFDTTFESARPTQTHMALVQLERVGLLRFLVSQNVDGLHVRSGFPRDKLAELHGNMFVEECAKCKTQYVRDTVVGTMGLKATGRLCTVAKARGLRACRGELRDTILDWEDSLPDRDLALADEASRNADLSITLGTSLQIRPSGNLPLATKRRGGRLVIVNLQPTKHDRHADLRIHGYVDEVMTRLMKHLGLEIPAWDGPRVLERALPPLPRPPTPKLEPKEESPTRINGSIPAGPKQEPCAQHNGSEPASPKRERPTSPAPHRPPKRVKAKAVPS
# UniProt O43255: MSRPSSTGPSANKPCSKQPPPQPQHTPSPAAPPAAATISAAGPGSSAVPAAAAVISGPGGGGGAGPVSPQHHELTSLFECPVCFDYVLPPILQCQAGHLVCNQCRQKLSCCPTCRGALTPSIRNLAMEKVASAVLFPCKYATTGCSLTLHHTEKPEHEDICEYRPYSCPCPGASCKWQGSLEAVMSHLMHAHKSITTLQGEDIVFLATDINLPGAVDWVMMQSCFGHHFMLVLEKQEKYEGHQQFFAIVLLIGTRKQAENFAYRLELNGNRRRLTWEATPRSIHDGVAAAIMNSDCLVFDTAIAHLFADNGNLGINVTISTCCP
# UniProt Q2VWA4: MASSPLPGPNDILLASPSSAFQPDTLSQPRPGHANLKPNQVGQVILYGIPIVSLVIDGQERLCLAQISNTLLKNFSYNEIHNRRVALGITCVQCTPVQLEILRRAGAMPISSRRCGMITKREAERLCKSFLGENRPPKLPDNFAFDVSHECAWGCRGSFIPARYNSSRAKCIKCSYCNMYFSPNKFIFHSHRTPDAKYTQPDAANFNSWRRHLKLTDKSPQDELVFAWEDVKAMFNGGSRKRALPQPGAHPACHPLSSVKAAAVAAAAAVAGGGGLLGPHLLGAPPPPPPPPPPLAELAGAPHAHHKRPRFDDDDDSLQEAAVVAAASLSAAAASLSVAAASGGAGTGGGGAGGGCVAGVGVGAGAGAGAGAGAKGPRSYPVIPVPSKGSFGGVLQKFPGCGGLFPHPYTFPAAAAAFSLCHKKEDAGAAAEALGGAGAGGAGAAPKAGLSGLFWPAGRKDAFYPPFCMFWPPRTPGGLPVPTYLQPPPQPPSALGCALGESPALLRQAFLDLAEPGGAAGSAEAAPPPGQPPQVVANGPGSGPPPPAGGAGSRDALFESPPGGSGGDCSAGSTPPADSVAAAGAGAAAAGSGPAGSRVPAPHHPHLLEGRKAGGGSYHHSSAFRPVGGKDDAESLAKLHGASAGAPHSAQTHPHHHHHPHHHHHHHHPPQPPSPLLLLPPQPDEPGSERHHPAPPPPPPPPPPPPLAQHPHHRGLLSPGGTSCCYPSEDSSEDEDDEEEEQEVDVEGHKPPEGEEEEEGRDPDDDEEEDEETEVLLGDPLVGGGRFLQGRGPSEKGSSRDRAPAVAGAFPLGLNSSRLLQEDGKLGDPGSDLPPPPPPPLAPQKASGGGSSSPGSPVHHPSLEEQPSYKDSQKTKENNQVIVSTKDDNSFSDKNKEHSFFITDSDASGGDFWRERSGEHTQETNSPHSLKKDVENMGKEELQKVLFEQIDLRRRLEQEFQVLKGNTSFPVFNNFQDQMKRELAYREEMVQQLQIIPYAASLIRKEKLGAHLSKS
# UniProt Q9Y371: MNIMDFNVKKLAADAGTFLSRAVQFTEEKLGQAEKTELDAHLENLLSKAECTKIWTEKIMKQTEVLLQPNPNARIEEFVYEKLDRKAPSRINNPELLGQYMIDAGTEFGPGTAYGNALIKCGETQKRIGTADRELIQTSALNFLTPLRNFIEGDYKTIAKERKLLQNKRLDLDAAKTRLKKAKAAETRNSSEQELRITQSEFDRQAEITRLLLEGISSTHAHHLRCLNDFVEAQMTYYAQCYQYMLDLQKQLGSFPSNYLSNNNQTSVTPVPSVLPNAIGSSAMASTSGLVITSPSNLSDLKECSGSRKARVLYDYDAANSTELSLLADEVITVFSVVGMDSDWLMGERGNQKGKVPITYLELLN
# UniProt Q8NEM2: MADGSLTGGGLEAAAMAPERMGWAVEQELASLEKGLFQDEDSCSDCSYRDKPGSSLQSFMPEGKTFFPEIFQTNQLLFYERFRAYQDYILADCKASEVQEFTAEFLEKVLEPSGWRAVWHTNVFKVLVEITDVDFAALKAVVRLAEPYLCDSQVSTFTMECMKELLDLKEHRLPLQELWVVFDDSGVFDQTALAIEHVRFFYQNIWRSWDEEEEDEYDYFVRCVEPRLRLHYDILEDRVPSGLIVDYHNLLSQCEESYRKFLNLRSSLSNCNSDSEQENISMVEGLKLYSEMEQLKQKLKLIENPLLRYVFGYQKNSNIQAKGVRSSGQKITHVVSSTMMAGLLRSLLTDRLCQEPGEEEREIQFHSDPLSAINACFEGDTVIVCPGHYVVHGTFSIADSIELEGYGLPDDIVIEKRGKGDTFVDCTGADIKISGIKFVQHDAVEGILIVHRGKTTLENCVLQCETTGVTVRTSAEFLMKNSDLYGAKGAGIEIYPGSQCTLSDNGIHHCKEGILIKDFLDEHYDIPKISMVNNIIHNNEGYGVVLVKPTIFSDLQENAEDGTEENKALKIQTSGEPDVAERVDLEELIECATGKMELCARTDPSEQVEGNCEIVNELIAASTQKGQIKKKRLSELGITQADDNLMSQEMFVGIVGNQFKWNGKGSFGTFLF
# UniProt Q6NT16: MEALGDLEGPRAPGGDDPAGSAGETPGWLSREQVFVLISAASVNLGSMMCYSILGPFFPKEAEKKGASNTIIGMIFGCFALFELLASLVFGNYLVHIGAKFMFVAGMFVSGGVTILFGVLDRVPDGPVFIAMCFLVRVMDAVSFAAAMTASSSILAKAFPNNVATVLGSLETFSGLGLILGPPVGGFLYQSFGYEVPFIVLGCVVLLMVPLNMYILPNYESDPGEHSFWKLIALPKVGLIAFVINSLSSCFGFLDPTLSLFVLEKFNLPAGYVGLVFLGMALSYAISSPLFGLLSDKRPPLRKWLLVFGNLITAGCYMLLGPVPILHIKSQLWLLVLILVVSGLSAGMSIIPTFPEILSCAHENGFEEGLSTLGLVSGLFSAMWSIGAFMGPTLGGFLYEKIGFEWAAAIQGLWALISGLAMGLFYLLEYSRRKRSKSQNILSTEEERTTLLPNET
# UniProt Q96BR1: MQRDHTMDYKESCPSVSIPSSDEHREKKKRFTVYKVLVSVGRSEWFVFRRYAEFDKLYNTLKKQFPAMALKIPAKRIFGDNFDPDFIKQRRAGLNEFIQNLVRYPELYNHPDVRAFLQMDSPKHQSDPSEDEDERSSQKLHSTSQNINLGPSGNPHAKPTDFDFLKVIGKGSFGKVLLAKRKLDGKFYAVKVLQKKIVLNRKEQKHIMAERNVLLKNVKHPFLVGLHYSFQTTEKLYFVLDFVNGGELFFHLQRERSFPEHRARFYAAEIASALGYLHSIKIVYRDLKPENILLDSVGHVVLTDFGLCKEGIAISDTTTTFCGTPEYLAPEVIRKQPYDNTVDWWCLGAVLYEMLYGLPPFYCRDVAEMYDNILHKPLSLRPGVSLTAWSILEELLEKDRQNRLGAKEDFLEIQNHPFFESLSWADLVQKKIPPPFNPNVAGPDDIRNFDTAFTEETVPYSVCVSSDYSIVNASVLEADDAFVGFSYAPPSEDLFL
# UniProt Q01105, whole entry, looked up: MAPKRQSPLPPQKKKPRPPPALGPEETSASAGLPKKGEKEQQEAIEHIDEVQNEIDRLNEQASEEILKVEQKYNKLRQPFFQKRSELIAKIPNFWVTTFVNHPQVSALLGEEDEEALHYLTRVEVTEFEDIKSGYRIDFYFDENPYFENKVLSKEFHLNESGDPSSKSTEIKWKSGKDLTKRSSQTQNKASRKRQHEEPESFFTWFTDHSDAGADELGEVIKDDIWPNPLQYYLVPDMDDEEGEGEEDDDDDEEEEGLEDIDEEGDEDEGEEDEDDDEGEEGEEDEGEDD
# UniProt P43007: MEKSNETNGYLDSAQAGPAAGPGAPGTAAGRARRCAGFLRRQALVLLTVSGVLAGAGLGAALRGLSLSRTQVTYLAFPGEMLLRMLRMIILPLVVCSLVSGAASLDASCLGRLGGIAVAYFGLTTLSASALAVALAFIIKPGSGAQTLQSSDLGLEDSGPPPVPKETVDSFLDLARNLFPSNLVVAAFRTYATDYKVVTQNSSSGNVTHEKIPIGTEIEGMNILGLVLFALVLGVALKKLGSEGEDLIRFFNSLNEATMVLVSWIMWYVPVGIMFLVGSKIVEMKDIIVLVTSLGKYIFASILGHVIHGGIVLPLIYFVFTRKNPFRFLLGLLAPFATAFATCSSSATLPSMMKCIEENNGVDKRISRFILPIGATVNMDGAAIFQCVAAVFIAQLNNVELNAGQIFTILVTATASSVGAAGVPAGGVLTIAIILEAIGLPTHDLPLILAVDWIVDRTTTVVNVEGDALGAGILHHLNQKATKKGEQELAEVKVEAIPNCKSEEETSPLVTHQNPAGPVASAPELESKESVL
# Some of the results follow.
# Compound: NCC(=O)Nc1ccc(-n2nc(C(F)(F)F)cc2-c2ccc3c(ccc4ccccc43)c2)cc1
# Assay: log2 fold change, soluble protein after heating vs DMSO (PISA); higher = thermal stabilisation; K562 lysate, 10 uM; active = over 0.2 and 3.5 SD of the protein, either way, in both replicates (recomputed)
# Outline: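 A 30 min treatment with 10 μM compound was applied to crude K562 extract at 1 mg/mL protein in PBS pH 7.4 with 1 mM MgCl2. Heating for 3 min spanned 48°C-58°C, after which aliquots were pooled, adjusted to 0.5% NP-40 at 4°C and spun at 21,000xg for 90 min. TMTpro 16plex LC-MS/MS of the supernatant, with channel sums equalised, gave values recorded as log-two fold change in thermal stability against solvent controls, from duplicates.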
row,Target,log2 fold change
1,SF3B6 (UniProt Q9Y3B4),inactive: 0.018
2,SINHCAF (UniProt Q9NP50),inactive: -0.557
3,SLC16A1 (UniProt P53985),inactive: 0.004
4,SH3BP2 isoform 4 (UniProt P78314),inactive: 0.08
5,SLC20A1 (UniProt Q8WUM9),inactive: 0
6,SKIV2L (UniProt Q15477),inactive: -0.128
7,SLC12A2 (UniProt P55011),inactive: 0.005
8,"SERPINB6, A0A087X1N8",inactive: 0.014
9,SH3BGR (UniProt P55822),inactive: -0.022
10,SF3B5 (UniProt Q9BWJ5),inactive: -0.074
11,SIL1 (UniProt Q9H173),inactive: -0.006
12,SF3A1 (UniProt Q15459),inactive: -0.003
13,SHFL (UniProt Q9NUL5),inactive: 0.136
14,SLC22A18 (UniProt Q96BI1),inactive: -0.136
15,SFR1 isoform 2 (UniProt Q86XK3),inactive: 0.092
16,SLC12A9 (UniProt Q9BXP2),inactive: 0.057
17,SGO1 (UniProt Q5FBB7),inactive: 0.024
18,SETX isoform 4 (UniProt Q7Z333),inactive: -0.007
19,SIRT6 (UniProt Q8N6T7),inactive: 0.05

row,Target,log2 fold change
1,SFN (UniProt P31947),inactive: -0.001
2,SETDB1 (UniProt Q15047),inactive: 0.051
3,SIAH2 (UniProt O43255),inactive: -0.172
4,SKOR2 (UniProt Q2VWA4),inactive: 0.105
5,SH3GLB1 isoform 2 (UniProt Q9Y371),inactive: -0.051
6,SERPINI1 (UniProt Q99574),inactive: -0.04
7,SHCBP1 (UniProt Q8NEM2),inactive: 0.02
8,SLC19A1 (UniProt P41440),inactive: 0.003
9,SKP2 (UniProt Q13309),inactive: -0.07
10,SIPA1L1 (UniProt O43166),inactive: 0.03
11,SLC18B1 (UniProt Q6NT16),inactive: 0.036
12,SGK3 (UniProt Q96BR1),inactive: 0.06
13,SKA1 (UniProt Q96BD8),inactive: 0.057
14,SH3BP5L (UniProt Q7L8J4),inactive: -0.003
15,SHMT1 (UniProt P34896),inactive: 0.004
16,SET isoform 2 (UniProt Q01105),inactive: 0.019
17,SH3BP1 (UniProt Q9Y3L3),inactive: 0.12
18,SLC1A4 (UniProt P43007),inactive: 0.032
19,SIRT3 (UniProt Q9NTG7),inactive: 0.02

# Individual results from the results shown:
# SKA1 (UniProt Q96BD8) – log2 fold change: inactive: 0.057
# SHMT1 (UniProt P34896) – log2 fold change: inactive: 0.004
# SET isoform 2 (UniProt Q01105) – log2 fold change: inactive: 0.019
